Measurements from patent publication US20100168087A1, “BENZO[1,2,3]THIADIAZINE DERIVATES” (priority 2006, published 2010).

What was measured:
male Sprague-Dawley rats = assay: elevated maze test in the rat; format: in vivo; conditions: per os, 60-min pretreatment, 5-min measurement, time spent in the open arms and number of entries into the open arms
Experimental: Pharmacological activity of the compounds of the general Formula (I) has been evaluated in elevated maze test in the rat.
The tests were carried out according to the method of S. Pellow and coworkers (J. Neurosci. Methods. 1985, 14, 149-167). During the test, a wooden-floor cross elevated by 50 cm from the floor was used. The length and the width of the arms of the cross were 100 and 15 cm, respectively. Two opposite arms of the cross are fitted at the ends and both sides with black plexyglass wall of 40 cm height (closed arms).
The central section of the cross measuring 15 by 15 cm is open. The other two opposite arms of the cross are not provided with walls (open arms).
The tests were carried out in male Sprague-Dawley rats weighing 200 to 220 g. After the 60-min pretreatment time (per os treatment), the animal was placed in the center of the maze. During the 5-min measurement time, four variables were recorded: the time spent in the open arms; the time spent in the closed arms; the number of entries into the open arms; the number of entries into the closed arms.
Animals normally avoid the open and light parts of the maze, thereby spending little time therein only. […] The minimum effective dose (MED) was determined for each tested compounds regarding the time spent in the open arms and the number of entries into the open arms. […]

CC1=NN(C)S(=O)(=O)c2c1ccc(Cl)c2Cl [Example 17, 7,8-Dichloro-2,4-dimethylbenzo[1,2,3]thiadiazine-1,1-dioxide]
MED (minimum effective dose), anxiolytic effect in elevated maze test (male Sprague-Dawley rats): ≦0.01 mg/kg p.o.
melting point: 220 to 222 °C
